{"source": "PubChem BioAssay AID1347076", "about": "(National Center for Advancing Translational Sciences (NCATS), 2019)", "note": "Screen size: about 400,000 compounds; about 13,000 (3.2%) were called active. Inconclusive means that the source gave no clear call. Such entries were picked first, then a sample of the others. Calls come from the whole dose curve; as a rule, active = well fitted cell-killing curve with a large enough effect; inconclusive = small, poorly fitted or top-dose-only effect, or effect the other way; inactive = flat fitted curve, though single readings scatter. Potencies beside an inconclusive call are fits to weak or partial responses and may not hold up. Potency is the fitted concentration of half-maximal effect.", "data": [{"test": "qHTS assay for MDR1-selective chemotherapeutics: Primary screen using the drug-selected MDR subline cells KB-V1; note: nearly all actives have a fitted effect of over 60% in size", "conditions": "KB-V1 MDR cells viability, CellTiter-Glo, 72 h; series mostly up to 46.1 µM", "summary_of_the_method": "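Luminescent ATP read-out (CellTiter-Glo, 10 min) measures survival of drug-selected KB-V1 MDR cells after 72 h, 37 degrees C compound exposure. Medium: phenol-red-free DMEM, 10% FBS. Values from fitted concentration-response curves.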", "values": [{"smiles": "Cc1ccc(-n2ncc3c(N4CCCCC4)ncnc32)cc1", "Potency": "inactive"}, {"smiles": "CC(NC(=O)c1nn(C)c(=O)c2ccccc12)c1ccccc1", "note": "(centres undefined)", "Potency": "active: 20.6 µM"}, {"smiles": "Cc1ccc(C)n1-c1ccc(N(C)C)cc1", "Potency": "inactive"}, {"smiles": "Cc1ccc(S(=O)(=O)N2CCCCC2)cc1NC(=O)CNCc1ccco1", "Potency": "inconclusive: 14.6 µM [cytotoxic, partial curve]"}, {"smiles": "CC1CCCC(NC(=O)COC(=O)CSc2ccc3ccccc3c2)C1C", "note": "(centres undefined)", "Potency": "inconclusive: 23.1 µM [rising, single point]"}, {"smiles": "Cc1nn(CCC(=O)NNC(=S)NCC(C)C)c(C)c1Br", "Potency": "inactive"}, {"smiles": "O=C(/C=C/c1cccc([N+](=O)[O-])c1)N1CCN(c2ccc(F)cc2)CC1", "Potency": "active: 20.6 µM"}, {"smiles": "CN(C(=O)c1ccc(NC(=O)Cc2cccc(NC(=O)C3CCN(C(=O)C4CCCC4)CC3)c2)cc1)C1CC1", "Potency": "inconclusive: 18.4 µM [rising, single point]"}, {"smiles": "CC(CCc1ccccc1)NC(=O)COc1ccc(S(=O)(=O)N2CCOCC2)cc1[N+](=O)[O-]", "note": "(centres undefined)", "Potency": "active: 20.6 µM"}, {"smiles": "COc1ccccc1CNC(=O)C1CCC(CNS(=O)(=O)c2ccc(NC(C)=O)cc2)CC1", "note": "(centres undefined)", "Potency": "inconclusive: 20.6 µM [rising, partial curve]"}, {"smiles": "C=CCNc1nc(SCC=C)nc2ccsc12", "Potency": "inconclusive: 29.1 µM [cytotoxic, single point]"}, {"smiles": "COc1ccc(C(=O)N2CCN(c3ccc([N+](=O)[O-])c(-n4nc(C)cc4C)c3)CC2)cc1", "Potency": "inconclusive: 23.1 µM [cytotoxic, single point]"}, {"smiles": "Cc1ccc(-c2csc(NC(=O)c3ccc4c(=O)n5c(nc4c3)CCCCC5)n2)cc1", "Potency": "active: 10.3 µM"}, {"smiles": "O=C1C=C(NCCc2cc(Br)c(O)c(Br)c2)C(=O)c2ncccc21", "Potency": "active: 5.8 µM"}, {"smiles": "CCS(=O)(=O)c1nc(NC(C)=O)n[nH]1", "Potency": "inconclusive: 32.6 µM [rising, single point]"}, {"smiles": "CCOCc1c(C(=O)N2CCN(Cc3ccc(Br)s3)CC2)oc2ccccc12", "Potency": "inconclusive: 29.1 µM [cytotoxic, single point]"}, {"smiles": "Cc1ccc(S(=O)(=O)N2CCN(C(=O)COC(=O)c3cnc(C)cn3)CC2)c(C)c1", "Potency": "inconclusive: 29.1 µM [rising, single point]"}, {"smiles": "Cc1nc(-c2ccccc2)sc1C1(C)CC(c2cccc([N+](=O)[O-])c2)=NO1", "note": "(centres undefined)", "Potency": "inactive"}, {"smiles": "O=C(NCc1ccco1)c1cccc(NC(=O)c2ccco2)c1", "Potency": "inactive"}, {"smiles": "Cc1ccc(C(=O)c2sc(Nc3ccc(F)cc3)nc2N)c(C)c1", "Potency": "inactive"}, {"smiles": "COC(=O)c1ccc(NC(=S)NC(=O)c2cccnc2)cc1", "Potency": "inconclusive: 9.2 µM [rising, partial curve, poor fit]"}, {"smiles": "Nc1ccc(Cc2ccc([N+](=O)[O-])cc2)cc1", "Potency": "inactive"}, {"smiles": "Cc1noc(C)c1CSc1nc2ccccc2c(=O)n1-c1ccc(F)cc1F", "Potency": "active: 20.6 µM"}, {"smiles": "C=CCN(C(=O)CCC(=O)Nc1cc(C)on1)C(C(=O)NC1CCCC1)c1ccc(OC)cc1OC", "note": "(centres undefined)", "Potency": "inactive"}, {"smiles": "CCOC(=O)c1c(NC(=O)c2ccccc2N(C)S(=O)(=O)c2ccccc2)sc2c1CCCC2", "Potency": "active: 5.8 µM"}, {"smiles": "CCN(Cc1ccccc1)C(=O)c1ccc(CS(=O)c2ccccc2C)o1", "note": "(centres undefined)", "Potency": "inconclusive: 20.6 µM [cytotoxic, single point]"}, {"smiles": "O=C(NC12CC3CC(CC(C3)C1)C2)c1ccccc1O", "Potency": "inactive"}, {"smiles": "Cc1ccc(Oc2ccc(OCC(=O)NC(C)C(=O)O)cc2)cc1", "note": "(centres undefined)", "Potency": "inactive"}, {"smiles": "O=C1CCCc2[nH]c(=O)c(-c3nc(-c4cccc([N+](=O)[O-])c4)cs3)cc21", "Potency": "inactive"}, {"smiles": "Cc1nn(C)c(C(=O)NN)c1Cl", "Potency": "inactive"}, {"smiles": "Cn1c(NCc2ccco2)nc2c1c(=O)n(Cc1ccc(Cl)c(Cl)c1)c(=O)n2C", "Potency": "inconclusive: 18.4 µM [cytotoxic, single point]"}, {"smiles": "Nc1ncccc1C(=O)OCC(=O)N1CCN(S(=O)(=O)c2ccc(Cl)cc2)CC1", "Potency": "inactive"}, {"smiles": "CC1(C(=O)NS(=O)(=O)c2ccc(F)cc2F)CCN1C(=O)Cc1ccc(-c2ccccc2)cc1", "note": "(centres undefined)", "Potency": "inactive"}, {"smiles": "FC(F)Sc1ccc(-n2c(-c3ccc(Cl)cc3)c[n+]3c2CCC3)cc1", "Potency": "inactive"}, {"smiles": "COC(=O)c1scc(C)c1-n1ccc(C(=O)C(=O)N(C)C)c1", "Potency": "inconclusive: 0.259 µM [cytotoxic, full curve]"}, {"smiles": "COc1cc(OC)cc(C(=O)N[C@H](C(=O)NCc2ccco2)C(C)C)c1", "Potency": "inactive"}, {"smiles": "O=C(CCCn1c(=O)[nH]c2ccccc2c1=O)N1CCN(c2ccccc2)CC1", "Potency": "inactive"}, {"smiles": "CC(=O)Nc1ccc(-c2ccnc3c2CC(C)(C(=O)NCCN(C)C)O3)cc1", "note": "(centres undefined)", "Potency": "inactive"}, {"smiles": "CC(NC(=O)/C(C#N)=C/c1ccc([N+](=O)[O-])o1)c1ccccc1", "note": "(centres undefined)", "Potency": "inactive"}, {"smiles": "COc1cc(O)c(C(CC(=O)N2CCC(Cc3ccccc3)CC2)c2ccc(C)cc2)c(OC)c1", "note": "(centres undefined)", "Potency": "inconclusive: 56.2 µM [cytotoxic, single point]"}, {"smiles": "O=C(CN1C(=O)COc2ccc(S(=O)(=O)N3CCOCC3)cc21)N1CCN(c2ccc(Cl)cc2)CC1", "Potency": "inconclusive: 16.4 µM [cytotoxic, single point]"}, {"smiles": "O=C(CSc1ccc2nnc(-c3ccccc3)n2n1)N1CCCc2ccccc21", "Potency": "inconclusive: 0.146 µM [rising, full curve, poor fit]"}, {"smiles": "Cc1ccccc1NC(=O)Cc1nnc(NC(=O)Nc2ccccc2F)s1", "Potency": "inconclusive: 5.17 µM [rising, partial curve]"}, {"smiles": "N#C/C=C\\Oc1ccc(Cl)cc1N", "Potency": "inconclusive: 16.4 µM [cytotoxic, single point]"}, {"smiles": "Cc1cc(=O)n2[nH]c(-c3ccc(C(C)(C)C)cc3)cc2n1", "Potency": "active: 14.6 µM"}, {"smiles": "COC(=O)c1cc2c([nH]c1=O)CCCC2=O", "Potency": "inconclusive: 16.4 µM [rising, single point]"}, {"smiles": "COc1ccc(C(=O)N2CCC(C(=O)N3CCN(c4ccccc4)CC3)CC2)cc1", "Potency": "inconclusive: 23.1 µM [cytotoxic, single point]"}, {"smiles": "CCN(C(=O)COC(=O)CCNS(=O)(=O)c1ccccc1F)c1c(N)n(Cc2ccccc2)c(=O)[nH]c1=O", "Potency": "inactive"}, {"smiles": "O=S(=O)(c1ccc(Cl)c(C(F)(F)F)c1)N1CCN(CC(O)COc2ccccc2F)CC1", "note": "(centres undefined)", "Potency": "inconclusive: 29.1 µM [cytotoxic, single point]"}]}]}
